Data as given in doi:10.1101/2024.11.25.625148.
Where a chain is given by its changes, count along the chain named. Where two headings read alike, the source gives them in different places. These are yes or no findings as the source states them, for the method shown. Binding seen in cells or lysates may run through a third protein. A result given as binding can be weak or reduced; the word gives no strength.

Chains of the proteins cited; added tags and fusions are not shown. Lines headed by an entry give the natural chain unless they say otherwise; changes in a name come on top.
UniProt Q60932: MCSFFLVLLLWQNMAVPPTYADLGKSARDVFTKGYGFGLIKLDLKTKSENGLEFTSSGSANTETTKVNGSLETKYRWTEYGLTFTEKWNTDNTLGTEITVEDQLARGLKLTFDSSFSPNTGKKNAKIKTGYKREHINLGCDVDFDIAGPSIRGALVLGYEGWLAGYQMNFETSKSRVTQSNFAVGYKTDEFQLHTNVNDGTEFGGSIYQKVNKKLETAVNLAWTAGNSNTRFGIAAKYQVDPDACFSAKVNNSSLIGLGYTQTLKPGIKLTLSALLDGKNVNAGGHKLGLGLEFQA

Columns and labels:
Assay in all cases: co-IP
[1] = target: T1, adenine nucleotide translocase 2 (ANT2) (mouse (endogenous in HL-1 cells and mouse myocardium)) (UniProt P51881)
T1 sequence: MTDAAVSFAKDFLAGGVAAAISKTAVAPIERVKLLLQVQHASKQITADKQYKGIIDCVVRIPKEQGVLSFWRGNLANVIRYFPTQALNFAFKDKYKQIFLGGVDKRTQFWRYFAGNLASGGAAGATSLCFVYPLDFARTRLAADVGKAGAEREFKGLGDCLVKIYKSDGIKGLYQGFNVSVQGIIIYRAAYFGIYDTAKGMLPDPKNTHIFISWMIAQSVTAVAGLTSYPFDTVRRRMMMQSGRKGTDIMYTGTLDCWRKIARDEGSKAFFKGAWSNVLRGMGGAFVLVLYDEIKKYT

[2] = target: T2, ANT2 expressed in mouse myocardium by AAV9 (human) (UniProt P05141)
T2 sequence: T1 sequence with R111L, K155R, F211V, S219T, S267G

[3] = target: T3, ANT2 stably expressed in HL-1 cells (Lv-ANT2) (human) (UniProt P05141)
T3 sequence: T1 sequence with R111L, K155R, F211V, S219T, S267G

[4] = target: T4, ANT2-K163R expressed in mouse myocardium by AAV9 (human) (UniProt P05141)
T4 sequence: T1 sequence with R111L, K155R, K163R, F211V, S219T, S267G

[5] = target: T5, ANT2-K163R stably expressed in HL-1 cells (Lv-ANT2-K163R) (human) (UniProt P05141)
T5 sequence: T1 sequence with R111L, K155R, K163R, F211V, S219T, S267G

[6] = target: T1, adenine nucleotide translocase 2 (ANT2) (mouse (endogenous in HL-1 cells and mouse myocardium)); remark: listed apart in the source

Measured: binding

voltage-dependent anion-selective channel 1 (VDAC1) (from UniProt Q60932)
binds: [1] | [2] | [3] | [4] | [5] | [6]
